Reference: the supplement of paper PMC12067093, “Discovery and optimisation of a covalent ligand for TRIM25 and its application to targeted protein ubiquitination” (Chemical Science, 2025)
This is one part of the list.

By UniProt entry, the sequences of proteins in these tests, tags left out. Where a name states a change or a piece, a line headed by the entry shows the natural chain unless it says otherwise.
UniProt P49736, whole entry, looked up: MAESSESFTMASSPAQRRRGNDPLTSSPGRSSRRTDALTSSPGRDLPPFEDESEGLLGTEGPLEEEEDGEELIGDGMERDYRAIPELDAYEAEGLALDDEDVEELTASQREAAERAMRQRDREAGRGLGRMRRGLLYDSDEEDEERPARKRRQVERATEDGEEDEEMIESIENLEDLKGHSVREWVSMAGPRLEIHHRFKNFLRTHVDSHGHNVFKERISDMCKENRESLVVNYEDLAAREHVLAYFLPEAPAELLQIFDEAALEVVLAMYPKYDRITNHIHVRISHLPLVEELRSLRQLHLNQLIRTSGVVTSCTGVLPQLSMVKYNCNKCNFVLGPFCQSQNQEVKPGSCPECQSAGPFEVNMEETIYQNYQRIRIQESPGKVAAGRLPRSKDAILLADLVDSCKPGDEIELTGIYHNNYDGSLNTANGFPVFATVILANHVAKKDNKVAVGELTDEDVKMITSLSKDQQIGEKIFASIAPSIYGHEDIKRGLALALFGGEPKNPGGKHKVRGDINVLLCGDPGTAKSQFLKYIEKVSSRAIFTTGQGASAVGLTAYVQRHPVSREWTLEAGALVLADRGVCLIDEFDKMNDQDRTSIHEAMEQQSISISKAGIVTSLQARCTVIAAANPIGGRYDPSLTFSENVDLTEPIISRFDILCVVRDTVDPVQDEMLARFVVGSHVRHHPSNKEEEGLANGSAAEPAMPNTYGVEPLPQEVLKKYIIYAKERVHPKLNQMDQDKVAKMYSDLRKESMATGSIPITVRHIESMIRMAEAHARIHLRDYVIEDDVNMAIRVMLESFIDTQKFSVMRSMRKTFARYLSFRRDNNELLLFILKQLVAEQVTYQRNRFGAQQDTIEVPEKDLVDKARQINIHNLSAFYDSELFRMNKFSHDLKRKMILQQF
UniProt P33992: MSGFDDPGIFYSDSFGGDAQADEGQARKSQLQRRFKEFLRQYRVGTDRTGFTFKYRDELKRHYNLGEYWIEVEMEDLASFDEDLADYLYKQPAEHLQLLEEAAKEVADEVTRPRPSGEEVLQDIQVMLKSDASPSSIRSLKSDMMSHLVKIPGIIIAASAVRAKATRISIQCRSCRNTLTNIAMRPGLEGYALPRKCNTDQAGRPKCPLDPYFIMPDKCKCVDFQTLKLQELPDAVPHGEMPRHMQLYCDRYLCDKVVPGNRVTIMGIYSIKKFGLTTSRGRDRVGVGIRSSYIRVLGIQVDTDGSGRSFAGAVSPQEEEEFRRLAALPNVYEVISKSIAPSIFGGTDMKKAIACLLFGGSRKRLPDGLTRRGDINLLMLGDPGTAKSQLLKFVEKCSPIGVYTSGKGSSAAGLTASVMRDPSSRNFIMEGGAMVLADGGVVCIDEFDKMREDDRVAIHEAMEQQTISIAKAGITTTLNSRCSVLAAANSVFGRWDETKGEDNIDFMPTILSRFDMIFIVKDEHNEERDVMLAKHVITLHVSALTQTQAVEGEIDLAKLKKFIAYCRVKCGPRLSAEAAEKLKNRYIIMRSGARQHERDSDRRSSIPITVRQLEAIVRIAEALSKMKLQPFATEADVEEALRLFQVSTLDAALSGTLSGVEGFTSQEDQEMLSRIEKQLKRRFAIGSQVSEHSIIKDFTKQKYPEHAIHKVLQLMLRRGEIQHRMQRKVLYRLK
UniProt P10620: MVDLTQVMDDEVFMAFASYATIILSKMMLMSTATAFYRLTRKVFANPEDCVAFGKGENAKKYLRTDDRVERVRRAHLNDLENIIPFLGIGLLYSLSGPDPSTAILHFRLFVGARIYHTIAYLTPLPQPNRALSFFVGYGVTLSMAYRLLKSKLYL
UniProt P33993, whole entry, looked up: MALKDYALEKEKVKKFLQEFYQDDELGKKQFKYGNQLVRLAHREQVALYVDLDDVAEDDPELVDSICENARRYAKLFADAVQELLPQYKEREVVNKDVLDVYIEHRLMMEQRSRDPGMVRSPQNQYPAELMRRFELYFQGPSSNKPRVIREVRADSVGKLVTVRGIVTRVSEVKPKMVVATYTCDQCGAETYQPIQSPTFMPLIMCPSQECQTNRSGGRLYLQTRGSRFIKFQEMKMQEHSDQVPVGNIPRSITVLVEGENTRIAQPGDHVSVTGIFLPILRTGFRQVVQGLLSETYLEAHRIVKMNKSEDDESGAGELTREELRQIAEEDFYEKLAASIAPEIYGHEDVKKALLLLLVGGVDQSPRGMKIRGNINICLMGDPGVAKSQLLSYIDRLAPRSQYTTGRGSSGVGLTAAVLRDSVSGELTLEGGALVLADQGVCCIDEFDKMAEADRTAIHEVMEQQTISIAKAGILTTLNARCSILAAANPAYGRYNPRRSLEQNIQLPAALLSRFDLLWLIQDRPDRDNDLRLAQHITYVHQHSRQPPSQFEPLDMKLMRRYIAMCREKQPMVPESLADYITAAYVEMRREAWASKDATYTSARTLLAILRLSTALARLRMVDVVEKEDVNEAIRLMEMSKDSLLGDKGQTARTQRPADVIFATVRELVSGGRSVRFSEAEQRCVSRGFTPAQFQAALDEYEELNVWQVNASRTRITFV
UniProt Q14566: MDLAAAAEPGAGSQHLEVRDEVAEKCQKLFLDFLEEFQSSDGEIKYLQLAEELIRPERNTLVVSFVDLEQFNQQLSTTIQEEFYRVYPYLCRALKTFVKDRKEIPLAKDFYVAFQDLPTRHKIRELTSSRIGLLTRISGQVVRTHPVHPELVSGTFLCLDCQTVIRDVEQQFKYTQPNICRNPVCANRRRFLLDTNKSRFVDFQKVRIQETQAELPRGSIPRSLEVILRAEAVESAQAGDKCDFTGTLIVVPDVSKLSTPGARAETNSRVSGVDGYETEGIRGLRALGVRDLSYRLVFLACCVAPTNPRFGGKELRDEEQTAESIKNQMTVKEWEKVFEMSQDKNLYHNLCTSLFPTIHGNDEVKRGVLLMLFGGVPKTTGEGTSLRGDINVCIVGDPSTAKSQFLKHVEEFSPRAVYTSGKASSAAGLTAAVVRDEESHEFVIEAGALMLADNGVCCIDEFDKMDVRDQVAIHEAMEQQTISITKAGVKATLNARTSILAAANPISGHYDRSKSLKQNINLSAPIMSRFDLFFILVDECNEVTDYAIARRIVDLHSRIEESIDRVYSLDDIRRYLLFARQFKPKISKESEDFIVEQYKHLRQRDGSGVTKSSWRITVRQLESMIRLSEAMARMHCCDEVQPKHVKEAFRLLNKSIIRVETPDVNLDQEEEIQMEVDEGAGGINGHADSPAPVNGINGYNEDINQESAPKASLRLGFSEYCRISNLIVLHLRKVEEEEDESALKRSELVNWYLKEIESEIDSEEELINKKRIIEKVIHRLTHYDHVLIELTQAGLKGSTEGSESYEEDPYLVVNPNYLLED
UniProt Q8N6R0: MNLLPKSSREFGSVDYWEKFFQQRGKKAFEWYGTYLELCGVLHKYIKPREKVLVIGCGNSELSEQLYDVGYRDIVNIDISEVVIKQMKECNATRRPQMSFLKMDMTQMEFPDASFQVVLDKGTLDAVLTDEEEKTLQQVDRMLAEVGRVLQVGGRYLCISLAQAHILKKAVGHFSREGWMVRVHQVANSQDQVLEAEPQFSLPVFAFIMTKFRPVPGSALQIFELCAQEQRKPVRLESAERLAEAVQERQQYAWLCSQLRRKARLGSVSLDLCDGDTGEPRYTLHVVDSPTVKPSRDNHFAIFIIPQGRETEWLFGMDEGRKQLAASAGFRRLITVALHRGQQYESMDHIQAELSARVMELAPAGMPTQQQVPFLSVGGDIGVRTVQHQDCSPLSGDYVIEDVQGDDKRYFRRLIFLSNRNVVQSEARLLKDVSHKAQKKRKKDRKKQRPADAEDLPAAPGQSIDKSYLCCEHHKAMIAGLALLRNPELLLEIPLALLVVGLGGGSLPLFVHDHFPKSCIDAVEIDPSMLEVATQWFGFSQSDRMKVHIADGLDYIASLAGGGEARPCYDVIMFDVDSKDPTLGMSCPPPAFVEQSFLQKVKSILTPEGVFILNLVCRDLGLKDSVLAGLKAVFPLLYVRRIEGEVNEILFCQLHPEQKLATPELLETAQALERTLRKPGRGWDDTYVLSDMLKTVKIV
UniProt Q86U44, whole entry, looked up: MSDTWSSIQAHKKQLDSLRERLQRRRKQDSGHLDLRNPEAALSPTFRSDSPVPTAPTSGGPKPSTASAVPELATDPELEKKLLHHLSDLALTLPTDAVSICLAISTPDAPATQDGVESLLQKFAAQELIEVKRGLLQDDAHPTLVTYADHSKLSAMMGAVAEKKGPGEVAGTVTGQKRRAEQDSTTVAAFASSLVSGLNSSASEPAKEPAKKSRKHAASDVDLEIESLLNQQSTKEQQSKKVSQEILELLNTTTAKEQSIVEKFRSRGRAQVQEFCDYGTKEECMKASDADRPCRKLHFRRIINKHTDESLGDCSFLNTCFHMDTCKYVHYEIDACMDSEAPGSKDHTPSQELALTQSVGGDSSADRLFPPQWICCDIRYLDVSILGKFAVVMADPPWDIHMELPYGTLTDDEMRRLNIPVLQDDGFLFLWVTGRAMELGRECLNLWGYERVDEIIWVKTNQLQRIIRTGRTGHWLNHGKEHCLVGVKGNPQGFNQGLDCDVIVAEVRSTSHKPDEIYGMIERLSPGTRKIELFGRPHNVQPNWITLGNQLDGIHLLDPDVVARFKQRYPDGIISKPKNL
UniProt O14880: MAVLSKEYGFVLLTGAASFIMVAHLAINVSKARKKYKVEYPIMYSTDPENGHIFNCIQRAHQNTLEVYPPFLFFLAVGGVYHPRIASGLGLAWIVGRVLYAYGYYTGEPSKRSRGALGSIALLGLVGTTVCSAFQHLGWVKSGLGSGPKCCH
UniProt Q96HR3: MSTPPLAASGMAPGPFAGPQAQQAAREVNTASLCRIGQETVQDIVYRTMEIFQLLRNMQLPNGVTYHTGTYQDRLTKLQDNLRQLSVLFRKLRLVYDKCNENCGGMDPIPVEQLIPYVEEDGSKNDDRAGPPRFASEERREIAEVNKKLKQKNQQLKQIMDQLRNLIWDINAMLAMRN
UniProt P33991: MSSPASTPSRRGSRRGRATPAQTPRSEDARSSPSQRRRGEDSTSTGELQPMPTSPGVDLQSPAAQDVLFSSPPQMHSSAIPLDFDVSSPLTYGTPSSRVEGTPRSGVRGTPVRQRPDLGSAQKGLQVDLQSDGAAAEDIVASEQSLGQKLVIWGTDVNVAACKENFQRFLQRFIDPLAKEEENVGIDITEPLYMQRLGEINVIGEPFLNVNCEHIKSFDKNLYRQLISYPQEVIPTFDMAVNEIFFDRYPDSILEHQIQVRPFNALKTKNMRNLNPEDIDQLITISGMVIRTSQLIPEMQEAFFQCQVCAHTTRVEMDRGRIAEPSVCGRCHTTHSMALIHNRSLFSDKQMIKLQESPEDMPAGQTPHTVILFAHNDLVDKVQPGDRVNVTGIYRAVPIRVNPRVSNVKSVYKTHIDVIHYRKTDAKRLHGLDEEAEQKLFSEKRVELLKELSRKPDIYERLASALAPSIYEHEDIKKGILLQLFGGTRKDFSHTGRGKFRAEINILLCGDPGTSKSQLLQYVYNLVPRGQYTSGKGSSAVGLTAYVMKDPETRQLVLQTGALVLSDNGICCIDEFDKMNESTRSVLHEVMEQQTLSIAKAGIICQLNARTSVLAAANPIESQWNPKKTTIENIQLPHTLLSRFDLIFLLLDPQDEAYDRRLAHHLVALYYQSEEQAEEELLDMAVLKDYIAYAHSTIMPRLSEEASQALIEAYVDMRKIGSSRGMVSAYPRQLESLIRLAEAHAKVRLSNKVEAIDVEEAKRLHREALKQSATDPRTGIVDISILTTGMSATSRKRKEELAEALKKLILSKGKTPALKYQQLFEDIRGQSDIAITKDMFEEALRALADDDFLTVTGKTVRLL
UniProt O15553: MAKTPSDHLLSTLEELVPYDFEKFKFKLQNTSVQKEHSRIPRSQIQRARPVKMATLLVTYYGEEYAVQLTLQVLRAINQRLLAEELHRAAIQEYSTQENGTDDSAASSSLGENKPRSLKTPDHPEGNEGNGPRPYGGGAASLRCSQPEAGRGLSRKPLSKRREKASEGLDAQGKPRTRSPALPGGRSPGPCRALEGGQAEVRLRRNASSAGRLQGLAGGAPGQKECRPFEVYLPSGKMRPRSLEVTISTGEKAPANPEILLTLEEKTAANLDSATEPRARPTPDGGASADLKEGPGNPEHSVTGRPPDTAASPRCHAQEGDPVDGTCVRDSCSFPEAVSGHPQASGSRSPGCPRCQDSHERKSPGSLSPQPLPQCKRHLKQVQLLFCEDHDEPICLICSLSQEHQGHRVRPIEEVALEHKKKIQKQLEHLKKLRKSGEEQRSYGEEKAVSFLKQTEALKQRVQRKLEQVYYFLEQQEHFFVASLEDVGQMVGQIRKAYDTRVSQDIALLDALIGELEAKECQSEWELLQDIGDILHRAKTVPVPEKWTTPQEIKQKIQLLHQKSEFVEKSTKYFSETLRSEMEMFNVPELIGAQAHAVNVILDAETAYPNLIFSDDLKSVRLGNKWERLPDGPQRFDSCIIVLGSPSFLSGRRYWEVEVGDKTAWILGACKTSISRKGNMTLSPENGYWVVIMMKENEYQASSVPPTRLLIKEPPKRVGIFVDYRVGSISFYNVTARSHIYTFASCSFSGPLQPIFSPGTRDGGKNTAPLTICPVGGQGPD

Compound: Cc1cc(ccc1-c1ccccc1)C(=O)N1CCCN(CC1)C(=O)CCl [compound 10]
Experiment: probe-labelled cysteine peptide fold change vs DMSO (competition) (log2 fold change); higher = less target engagement (more negative = stronger competition)
Settings: THP-1, incubation time: 4 h
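Also: competitive profiling in live THP-1 cells: cysteine peptides tagged with an iodoacetamide desthiobiotin (IA-DTB) probe, intensity after compound treatment relative to DMSO-treated cells.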

| Target | probe-labelled cysteine peptide fold change (10 µM) | probe-labelled cysteine peptide fold change (50 µM) |
| --- | --- | --- |
| MCM2_P49736_406_DAILLADLVDSCK (UniProt P49736) | -0.0605 | 0.3 |
| MCM5_P33992_197_KCNTDQAGR (UniProt P33992) | 0.0375 | -0.279 |
| MDN1_Q9NU22_1400_TTICQVFAALANQK (UniProt Q9NU22) | 0.0276 | 0.305 |
| MGST1_P10620_50_VFANPEDCVAFGKGENAKK (UniProt P10620) | -0.397 | -0.691 |
| MCM7_P33993_378_GNINICLMGDPGVAK (UniProt P33993) | -0.0869 | -0.0399 |
| MCM5_P33992_197_KCNTDQAGRPK (UniProt P33992) | 0.0381 | -0.659 |
| MCM6_Q14566_180_YTQPNICR (UniProt Q14566) | 0.0225 | -0.245 |
| MDN1_Q9NU22_3308_LDNLTCHLLK (UniProt Q9NU22) | 0.0702 | 0.0612 |
| MCM3_P25205_119_TLTSCFLSCVVCVEGIVTK (UniProt P25205) | 0.0953 | -0.331 |
| MGAT2_Q10469_440_NGGWGDIRDHELCK (UniProt Q10469) | -0.212 | 0.00707 |
| MDN1_Q9NU22_2158_CLGEGGK (UniProt Q9NU22) | -0.171 | -1.54 |
| METTL13_Q8N6R0_226_FRPVPGSALQIFELCAQEQR (UniProt Q8N6R0) | -0.0774 | -0.192 |
| MCM2_P49736_661_FDILCVVR (UniProt P49736) | 0.242 | 0.398 |
| METAP1_P53582_202_SCCTSVNEVICHGIPDR (UniProt P53582) | 0.0105 | -0.0373 |
| METTL3_Q86U44_320+326_HTDESLGDCSFLNTCFHMDTCK (UniProt Q86U44) | -0.102 | 0.0484 |
| MED1_Q15648_489_GLSDALICTDDFIAK (UniProt Q15648) | 0.0372 | -0.0427 |
| MDN1_Q9NU22_2816_LVVECFSQLK (UniProt Q9NU22) | 0.0993 | 0.107 |
| METTL3_Q86U44_326_HTDESLGDCSFLNTCFHMDTCK (UniProt Q86U44) | 0.143 | -0.0713 |
| MDN1_Q9NU22_333_SLQTLAMAVASQNAVLLEGPIGCGK (UniProt Q9NU22) | -0.182 | 0.136 |
| MGST3_O14880_56_VEYPIMYSTDPENGHIFNCIQR (UniProt O14880) | -0.27 | 0.0241 |
| MCM2_P49736_522_GDINVLLCGDPGTAK (UniProt P49736) | -0.0156 | 0.0547 |
| MED30_Q96HR3_34_EVNTASLCR (UniProt Q96HR3) | -0.0445 | 0.173 |
| MCM4_P33991_212_LGEINVIGEPFLNVNCEHIK (UniProt P33991) | -0.0897 | 0.0192 |
| MCM3AP_O60318_1839_STECAQEGR (UniProt O60318) | -0.064 | -0.0739 |
| MED17_Q9NVC6_363_QCPEDHLYVLEHNLHLLIR (UniProt Q9NVC6) | -0.194 | -0.88 |
| MEFV_O15553_521_ECQSEWELLQDIGDILHR (UniProt O15553) | -0.151 | -0.21 |

| Target | probe-labelled cysteine peptide fold change (10 µM) | probe-labelled cysteine peptide fold change (50 µM) |
| --- | --- | --- |
| METAP1_P53582_368_SAQFEHTLLVTDTGCEILTRR (UniProt P53582) | 0.0198 | -0.277 |
| METTL13_Q8N6R0_617_SILTPEGVFILNLVCR (UniProt Q8N6R0) | 0.233 | 0.364 |
| MCM4_P33991_509_AEINILLCGDPGTSK (UniProt P33991) | -0.161 | 0.162 |
| MCL1_Q07820_16_NAVIGLNLYCGGAGLGAGSGGATRPGGR (UniProt Q07820) | 0.0416 | 0.263 |
| MCM4_P33991_509_FRAEINILLCGDPGTSK (UniProt P33991) | -0.223 | 0.0968 |
| MDC1_Q14676_128_DQELILFADLLCQYHR (UniProt Q14676) | 0.245 | 0.852 |
| MFAP3_P55082_73_EGTSVSIECLLTASHYEDVHWHNSK (UniProt P55082) | -0.0487 | -0.0712 |
| MCM6_Q14566_91_VYPYLCR (UniProt Q14566) | 0.0185 | 0.16 |
| MECP2_P51608_429_GGSLESDGCPKEPAK (UniProt P51608) | -0.313 | -0.87 |
| MGST1_P10620_50_VFANPEDCVAFGK (UniProt P10620) | -0.312 | 0.269 |
| MED27_Q6P2C8_309_TLEAFHDTCR (UniProt Q6P2C8) | 0.00649 | 0.266 |
| MDC1_Q14676_128_LRDQELILFADLLCQYHR (UniProt Q14676) | 0.245 | 0.313 |
| METAP1_P53582_194_SCCTSVNEVICHGIPDR (UniProt P53582) | -0.136 | -0.176 |
| MIA3_Q5JRA6_124_EELQVPTDETDFVCFDGGR (UniProt Q5JRA6) | -0.101 | 0.109 |
| MED13_Q9UHV7_1228_DCCNDCYLALEHGR (UniProt Q9UHV7) | -0.00488 | 0.125 |
| MCM7_P33993_566_YIAMCR (UniProt P33993) | -0.553 | -0.395 |
| MCU_Q8NE86_97_CQFTLKPISDSVGVFLR (UniProt Q8NE86) | 0.018 | -0.0818 |
| MCM6_Q14566_721_LGFSEYCR (UniProt Q14566) | 0.08 | -0.00309 |
| MED14_O60244_635_AGEMCAFNK (UniProt O60244) | -0.251 | -0.315 |
| MCM5_P33992_482_CSVLAAANSVFGR (UniProt P33992) | -0.00634 | -0.017 |
| MFSD5_Q6N075_390_VPLHSLACLGLLVLHDSDRK (UniProt Q6N075) | 0.152 | 0.235 |
| MED1_Q15648_373_FYAALPGQQHCYFLNK (UniProt Q15648) | 0.221 | 0.249 |
| MFF_Q9GZY8_209_VCPPHMLPEDGANLSSAR (UniProt Q9GZY8) | -0.117 | -0.123 |
| METAP1_P53582_174_EVLDVAAGMIKPGVTTEEIDHAVHLACIAR (UniProt P53582) | 0.0239 | -0.428 |
| METAP2_P50579_197_PGMTMIEICEK (UniProt P50579) | -0.0258 | 0.0239 |
| MCMBP_Q9BTE3_636_CVNGNEL (UniProt Q9BTE3) | -0.292 | -0.488 |

Single records, from the list above.
MCM4_P33991_509_FRAEINILLCGDPGTSK (UniProt P33991) reads probe-labelled cysteine peptide fold change (10 µM): -0.223; probe-labelled cysteine peptide fold change (50 µM): 0.0968
METAP1_P53582_194_SCCTSVNEVICHGIPDR (UniProt P53582) reads probe-labelled cysteine peptide fold change (10 µM): -0.136; probe-labelled cysteine peptide fold change (50 µM): -0.176
